Test results reported in paper PMC7819943, “Rice protein-binding microarrays: a tool to detect cis-acting elements near promoter regions in rice”.
Some of the results follow.

By UniProt entry, the sequences of proteins in these tests, tags left out.
UniProt Q0JBA9, entry or part of it: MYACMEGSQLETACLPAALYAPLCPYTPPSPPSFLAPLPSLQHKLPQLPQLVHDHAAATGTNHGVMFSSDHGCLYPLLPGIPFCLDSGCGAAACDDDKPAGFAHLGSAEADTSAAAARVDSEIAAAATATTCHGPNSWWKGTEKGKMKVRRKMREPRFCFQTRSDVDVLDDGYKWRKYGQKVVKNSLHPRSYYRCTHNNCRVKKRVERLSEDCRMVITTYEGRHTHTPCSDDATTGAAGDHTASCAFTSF

What follows are sequences tested against OsWRKY34 (Oryza sativa, UniProt Q0JBA9 1-250) (assay: protein-binding microarray (RPBM); PBS, 2% BSA, 51.3 ng/ul salmon testes DNA, 50 uM zinc acetate, 200 nM TF, 25 C, 1 h; high values mean tight binding). Conditions: protein: recombinant; tags: N-terminal polyhistidine and DsRed monomer fusion (pET32a); label: CyDye5-dUTP incorporated in the synthesized complementary strand; 3' TTTTT single-stranded linker to array surface; dsDNA, one strand shown.
In short: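 The binding signal is fluorescence intensity per feature, in arbitrary units, read on an Axon 4000B scanner. Polyhistidine- and DsRed-tagged transcription factors (N-terminal fusions) from E. coli BL21-CodonPlus were purified on Ni–NTA and applied at 200 nM for 1 h at 25 °C to a double-stranded, BSA-blocked custom Agilent array in buffer with 50 µM zinc acetate.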

Sequence	binding signal
CCTTGCTGGACTCGTCCTTATTTGTTATTCCCACGATGTTCGGAGTCACCTAGTGCAG	10600 fluorescence intensity (a.u.)
AGGCTTTGTTTTTTGTTTTTATTTGCTGTTTCTCTTCATCCGGAGTCACCTAGTGCAG	13000 fluorescence intensity (a.u.)
GAAAAATCTTTCCAGTGGTAGTGTGTTGCTCTCGGCCTCGCGGAGTCACCTAGTGCAG	8320 fluorescence intensity (a.u.)
TGCTGCCTGCCCCATGTCTTAATTTCTCTTTCTGCAGCTACGGAGTCACCTAGTGCAG	9490 fluorescence intensity (a.u.)
TTTATTCCCGCCATCTCATTCTCACCTACCCAATTGTCTCCGGAGTCACCTAGTGCAG	8420 fluorescence intensity (a.u.)
TCACGTTTCGGCACCCCGAGTTATCCTTACCCCGGCCGCGCGGAGTCACCTAGTGCAG	9220 fluorescence intensity (a.u.)
TCCTCCTCCGTCCGGTTCGCGCCGCGCTCCCTTCGTTCGTCGGAGTCACCTAGTGCAG	10500 fluorescence intensity (a.u.)
GTCTTGCCAGGCCTCAATATAGCCCTCTTTCCTACATCTTCGGAGTCACCTAGTGCAG	8040 fluorescence intensity (a.u.)
GTGCCTAACAATCTGCTGCTTTTTACCCGCCAAGTATCTTCGGAGTCACCTAGTGCAG	8180 fluorescence intensity (a.u.)
CCCAGCTGCCCACTGCTACCTCCGTTCCATAATAAGTTAACGGAGTCACCTAGTGCAG	8680 fluorescence intensity (a.u.)
GAATCCACGCGCTACAGACAACCGGAACCATGTCCATTCTCGGAGTCACCTAGTGCAG	8190 fluorescence intensity (a.u.)
TCCGTTTTTGTGGTTTTCGATGGATTCCGTCGTCGCCGACCGGAGTCACCTAGTGCAG	9660 fluorescence intensity (a.u.)
GGTCGTCGAGATCCTTATCCTCTTCGTGCTGACTCTATCGCGGAGTCACCTAGTGCAG	8280 fluorescence intensity (a.u.)
ACTGATAGGACTGAGTCGTCTCTAGTCTCGATTGCTTTTCCGGAGTCACCTAGTGCAG	8250 fluorescence intensity (a.u.)
GCCACCGTTTCTCCCAGCGCGCCGCAGCCGCCGCCGCCGGCGGAGTCACCTAGTGCAG	11100 fluorescence intensity (a.u.)
CTTGTTTGTTTAAACCTCTCCACCGCCGCCTCCTCCTTTCCGGAGTCACCTAGTGCAG	8260 fluorescence intensity (a.u.)
TGGTGCTCTCCCATTGTTCTTGGGTTTGCTGGTGCTATTCCGGAGTCACCTAGTGCAG	8560 fluorescence intensity (a.u.)
TTGTCTCTCCATGCATATTGGAAATTTGTGATATATATATCGGAGTCACCTAGTGCAG	9360 fluorescence intensity (a.u.)
TTGATTTCTCTGAGTTTGTGTTCTTGGCATCATCATCATTCGGAGTCACCTAGTGCAG	11400 fluorescence intensity (a.u.)
TCACTCAATCCCTTTCATACCCCTAAAATTTACCCGATCCCGGAGTCACCTAGTGCAG	9060 fluorescence intensity (a.u.)
GGTACTATTTATTGCTTTGATTTTATTATTTTTTCTCTAGCGGAGTCACCTAGTGCAG	8030 fluorescence intensity (a.u.)

Given in markdown: part of the list above.

| Sequence | binding signal |
| --- | --- |
| TGGTGCTCTCCCATTGTTCTTGGGTTTGCTGGTGCTATTCCGGAGTCACCTAGTGCAG | 8560 fluorescence intensity (a.u.) |
| TTGTCTCTCCATGCATATTGGAAATTTGTGATATATATATCGGAGTCACCTAGTGCAG | 9360 fluorescence intensity (a.u.) |

Remaining list, next part.

Sequence	binding signal
TTGATCTGGGCCTAAATTTCTATTGTATCACCCTCTTAAACGGAGTCACCTAGTGCAG	10800 fluorescence intensity (a.u.)
GTATCATGGTGTATGGCCTACTTGGTGCTATTTGTATGAGCGGAGTCACCTAGTGCAG	8130 fluorescence intensity (a.u.)
GCGATATCTTGCCGTCCCCGTTGGTGTCGAACCGCTTGAACGGAGTCACCTAGTGCAG	11500 fluorescence intensity (a.u.)
GCGAGGACTAAGTGCCTCTTTTGTAAGTATTTTACGCTTTCGGAGTCACCTAGTGCAG	8110 fluorescence intensity (a.u.)
TGAGTCACTTCTTCTCTGTCCATATTCTATTTCTCCTCCACGGAGTCACCTAGTGCAG	8170 fluorescence intensity (a.u.)
TTCCGCTGCATTTCTCTACACAGCCACGTTGCTCCAACAACGGAGTCACCTAGTGCAG	11200 fluorescence intensity (a.u.)
CACCTAGTCAGCATGAGTGAACCGGGTCAACTTACCACATCGGAGTCACCTAGTGCAG	8020 fluorescence intensity (a.u.)
AGAACTCAGAGACAACAGACTTCCATATGACACACTCCTTCGGAGTCACCTAGTGCAG	8120 fluorescence intensity (a.u.)
AATTATTTATTGATTGTTATTTTTTTCGCGAACGCTTTATCGGAGTCACCTAGTGCAG	8150 fluorescence intensity (a.u.)
CGCGCTCGCCTGTCTTCGCTGTCGTCGGCCGTTGCTCTCCCGGAGTCACCTAGTGCAG	14200 fluorescence intensity (a.u.)
TCTGATTACTGCTTATTGAGTTACAACCTGCTATATTACACGGAGTCACCTAGTGCAG	8970 fluorescence intensity (a.u.)
ACGGAGGAACAACGCATGCAAATCTTCATGGCCGGCCTTCCGGAGTCACCTAGTGCAG	8450 fluorescence intensity (a.u.)
ATCAAGCTTTCGTCAGATCTCACGCTTATTTCTTCTCTCCCGGAGTCACCTAGTGCAG	8520 fluorescence intensity (a.u.)
GTATCATTGGTTTTCATTTGTTTGGTGTGTCAGAGGCATACGGAGTCACCTAGTGCAG	10300 fluorescence intensity (a.u.)
GATGCTGCATGGCACTTAAGTTGTATTTATGTGTGTGTACCGGAGTCACCTAGTGCAG	8190 fluorescence intensity (a.u.)
GCATGAGGTCTCCACCTCACCACAAGTCGCTCCACATCGACGGAGTCACCTAGTGCAG	8280 fluorescence intensity (a.u.)
CAAATATTTAGTCCCTGTTTCCCTGTCATTGCCTTCGACTCGGAGTCACCTAGTGCAG	10600 fluorescence intensity (a.u.)
AGTATAACCACCGGGCCCCACGCGTCATCCTCCCGCGCGTCGGAGTCACCTAGTGCAG	13100 fluorescence intensity (a.u.)
ACATAGCTCCTCCAAATATTTGTTTTGACTTGAAATCATCCGGAGTCACCTAGTGCAG	8710 fluorescence intensity (a.u.)
GGGAGGGGTCAGATCTCGGGAGCTTACCGGCGAGTAGAGCCGGAGTCACCTAGTGCAG	8240 fluorescence intensity (a.u.)
TTTAAGTTTGTTTGGTTGTGGGTTATAGGCTCTATTTCAACGGAGTCACCTAGTGCAG	12000 fluorescence intensity (a.u.)
